Read-outs that look alike come from different tables or passages of the source.
Tests used:
[1] = format: physicochemical
[2] = CEST experiments on 3.0 T human MRI scanner, detection limit of 42
[3] = format: physicochemical; conditions: at 9.3 ppm, ω1=7.2 μT, pH 7.3-7.4

| SMILES | Contrast (% at 3.6 uT) ([1]; Table 6, 10 mM, pH 7.3-7.4, tsat = 3 sec, ω1 = 3.6 μT, 37° C.) [%] | contrast, % higher than salicylic acid ([1]; using 8 μT on 17/0.6 T scanner) [%] | CEST contrast at the detection limit ([2]; 0.2 mM, using 8 μT) | contrast, % higher than salicylic acid ([2]; 2.1 μT on the 3 T scanners) | CEST contrast ([2]; 3 T, 0.5 mM, 2.1 μT, at 8.5 ppm) [%] | lowest detectable concentration ([2]; clinically useful field strengths) [µM] | detection limit ([2]; using 8 μT) [mM] | CEST contrast [3] [%] | Contrast (%) ([1]; Table 1, 10 mM, pH 7.3-7.4, tsat = 3 sec, ω1 = 3.6 μT, 37° C.) |
| --- | --- | --- | --- | --- | --- | --- | --- | --- | --- |
| O=C(O)c1cc(O)c(C(=O)O)cc1O [Compound 42] | 17.1 | ≤ 300 | around 0.5% | approximately 60% | 0.6 | 200 | 0.2 | – | – |
| O=C(O)c1ccccc1O [Compound 1, salicylic acid] | – | – | – | – | – | – | – | 4 | 6.8 |
